This experiment has as its target Troponin I, cardiac muscle (Homo sapiens) + Troponin T, cardiac muscle (Homo sapiens) + Troponin C, slow skeletal and cardiac muscles (Homo sapiens) (UniProt P19429+P45379+P63316). The experiment in a line: calcium desensitizers of cardiac thin filaments – biochemical, fluorescence readout, confirmation (AID 504635). Conditions: reconstituted cardiac thin filaments, calcium sensitivity fluorescence; at 7.15 µM; hits give high values.

SMILES strings stand for the structures. What follows is the remainder of the data, with few or none of the hits. Calls of active or inactive are those of the source. Cut-off read from the data, not from the text of the source: active = inhibition above about 18%; inactive = the rest.

As a reminder, the inhibition is the drop in the measured response relative to a control, in per cent. As to `CN1[C@@H]2CC[C@H]1CC(OC(=O)C(O)c1ccccc1)C2` (stereo partly specified), the inhibition is inactive: -2.73%.

Source of the values: PubChem BioAssay AID504635 (The Scripps Research Institute Molecular Screening Center, 2011).
